Here are results for three molecules from article PMC12430429, “Synthesis, Structure, DNA/BSA Binding, DNA Cleaving, Cytotoxic and SOD Mimetic Activities of Copper(II) Complexes Derived from Methoxybenzylamine Schiff Base Ligands” (Molecules, 2025).

This series concerns S. cerevisiae cells. Briefly: Resazurin cytotoxicity assay (mitochondrial activity). It is filed as cell-based. Conditions: average of 3 measurements. The source says: The resazurin-based model that monitors mitochondrial activity is widely used as an indicator of cell viability, proliferation and cytotoxicity. This method is based on the reduction of resazurin to resorufin by mitochondrial enzymes, as carriers of diaphorase activities, like NADPH-dehydrogenase, which are responsible for the transference of electrons from NADPH^+, H^+ to resazurin. The reduction of resazurin correlates with the number of live bacterial or mammalian cells or fungi. Furthermore, S. cerevisiae is an established model system for eukaryotic organisms. They have conserved cellular processes with high homology to those of humans. They proliferate rapidly and are even used as a model to study the effects of anticancer agents. The use of S. cerevisiae in resazurin redox testing is a good alternative to conventional cell viability testing techniques.
The assay is based on the ability of living cells to reduce blue resazurin (7-hydroxy-3H-phenoxazin-3-one 10-oxide) to pink resorufin (7-hydroxy-3H-phenoxazin-3-one) which is measurable by the UV–Vis spectrophotometric or fluorometric method (AlamarBlue^TM). Living cells have active N-methylphenazinium methosulfate that catalyzes the redox reaction in mitochondria of NADH and blue resazurin to produce pink resorufin (Scheme 2). This test is used as an oxidation–reduction indicator in cell viability assays for yeasts and mammalian cells. Reduction of the dye by viable cells decreases the amount of the oxidized form (blue) and, at the same time, increases the amount of its fluorescent intermediate (pink), indicating the degree of cytotoxicity caused by the test material.
S. cerevisiae cells (CCY 21-4-64; Libáň, Czech Republic) were cultured at 28 °C/24h on Saburaud’s dextrose agar with chloramphenicol (Merck, Boston, MA, USA). Subsequently, after 24 h, S. cerevisiae cells were inoculated into sterile liquid YPD medium (Sigma–Aldrich, St. Louis, MO, USA) and cultivation continued at 28 °C/24 h. In the exponential growth phase, cells were centrifuged (8.000 g/3 min), washed twice with sterile physiological solution (0.9% NaCl) and pipetted at a concentration of 1 × 10^9 cells/mL in sterile microtubes (modified procedure from Bitacura, 2018). Sterile physiological solution and copper complexes at concentrations of 1 × 10^−3 M, 3 × 10^−3 M and 5 × 10^−3 M were added to the centrifuged biomass to a total volume of 1 mL and individual samples were cultured in an incubator at 28 °C/3 h. After 3 h, 0.1 mL of ResazurinOX (in vitro toxicology assay kit based on resazurin, Sigma, USA) was added to each sample and the samples were allowed to culture for 2 h. After incubation, the biomass in the samples was separated from the supernatant by centrifugation (8000 g/5 min). The separated solution was diluted in a ratio of 1:1 with physiological solution and subjected to the measurement of UV spectra by the spectrophotometric method according to the recommended protocol of the kit manufacturer (Sigma, USA) on a GENESYS 10S UV–Vis spectrophotometer (Thermo Scientific, USA) in the range of 500–800 nm, using a 1 cm long cuvette.
Cells’ innate metabolic was measured by using an established formula for the reduction percentage. The reduction percentage was calculated using the following formula:(7) Red(%)=ƐOX_600 nm×A570 nm_sample−ƐOX_570 nm×A600 nm_sample/ƐRED_570 nm×A600 nm_C−−ƐRED_600 nm×A570 nm_C−×100
A general note: The colour change of resazurin is a common sign of viable cells or microbes.

Consider `COc1ccccc1CN=Cc1ccccc1[O-].COc1ccccc1CN=Cc1ccccc1[O-].[Cl-].[Cl-].[Cu+2].[Cu+2]` [Complex 4a, [Cu2 (Sal-2-MeOBn)2 Cl2]], for which the “Absorbance 570 nm” value runs as follows: (complex 1 mM) 0.55; (complex 3 mM) 0.44; (complex 5 mM) 0.32. In addition, the “Absorbance 600 nm” value (complex 1 mM) stood at 0.25, the “Absorbance 600 nm” value (complex 3 mM) is given as 0.5 and the “Absorbance 600 nm” value (complex 5 mM) stood at 0.26.

As to `COc1cccc(CN=Cc2ccccc2[O][Cu][O]c2ccccc2C=NCc2cccc(OC)c2)c1` [Complex 4b, [Cu (Sal-3-MeOBn)2]], the “Absorbance 570 nm” value is, setting by setting: (complex 1 mM) 0.75; (complex 3 mM) 0.69; (complex 5 mM) 0.63. Moreover, the “Absorbance 600 nm” value was 0.69 (complex 1 mM), 0.88 (complex 3 mM) and 0.90 (complex 5 mM).

Turning to `COc1ccc(CN=Cc2ccccc2[O-])cc1.COc1ccc(CN=Cc2ccccc2[O-])cc1.[Cl-].[Cl-].[Cu+2].[Cu+2]` [Complex 4c, [Cu2 (Sal-4-MeOBn)2 Cl2]], the “Absorbance 570 nm” value reads like this: (complex 1 mM) 0.60; (complex 3 mM) 0.40; (complex 5 mM) 0.33. Further, the “Absorbance 600 nm” value was found to be 0.77 (complex 1 mM), 0.44 (complex 3 mM) and 0.27 (complex 5 mM).
